Amino acid sequences for entries named in this document (tags omitted). A change or cut given only in a name is not applied to a line headed by its entry.
UniProt Q14653: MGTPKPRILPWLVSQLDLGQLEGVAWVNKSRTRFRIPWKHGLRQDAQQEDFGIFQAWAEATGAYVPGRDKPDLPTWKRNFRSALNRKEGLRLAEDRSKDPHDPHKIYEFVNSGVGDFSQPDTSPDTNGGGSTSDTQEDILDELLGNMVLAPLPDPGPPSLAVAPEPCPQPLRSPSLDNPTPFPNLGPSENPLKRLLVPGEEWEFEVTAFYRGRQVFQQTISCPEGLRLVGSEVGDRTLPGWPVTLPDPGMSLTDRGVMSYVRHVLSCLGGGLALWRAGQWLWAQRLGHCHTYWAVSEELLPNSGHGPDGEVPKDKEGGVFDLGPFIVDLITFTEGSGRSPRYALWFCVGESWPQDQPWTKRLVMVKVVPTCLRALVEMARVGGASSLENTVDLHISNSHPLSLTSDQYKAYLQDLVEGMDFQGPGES
UniProt P45974: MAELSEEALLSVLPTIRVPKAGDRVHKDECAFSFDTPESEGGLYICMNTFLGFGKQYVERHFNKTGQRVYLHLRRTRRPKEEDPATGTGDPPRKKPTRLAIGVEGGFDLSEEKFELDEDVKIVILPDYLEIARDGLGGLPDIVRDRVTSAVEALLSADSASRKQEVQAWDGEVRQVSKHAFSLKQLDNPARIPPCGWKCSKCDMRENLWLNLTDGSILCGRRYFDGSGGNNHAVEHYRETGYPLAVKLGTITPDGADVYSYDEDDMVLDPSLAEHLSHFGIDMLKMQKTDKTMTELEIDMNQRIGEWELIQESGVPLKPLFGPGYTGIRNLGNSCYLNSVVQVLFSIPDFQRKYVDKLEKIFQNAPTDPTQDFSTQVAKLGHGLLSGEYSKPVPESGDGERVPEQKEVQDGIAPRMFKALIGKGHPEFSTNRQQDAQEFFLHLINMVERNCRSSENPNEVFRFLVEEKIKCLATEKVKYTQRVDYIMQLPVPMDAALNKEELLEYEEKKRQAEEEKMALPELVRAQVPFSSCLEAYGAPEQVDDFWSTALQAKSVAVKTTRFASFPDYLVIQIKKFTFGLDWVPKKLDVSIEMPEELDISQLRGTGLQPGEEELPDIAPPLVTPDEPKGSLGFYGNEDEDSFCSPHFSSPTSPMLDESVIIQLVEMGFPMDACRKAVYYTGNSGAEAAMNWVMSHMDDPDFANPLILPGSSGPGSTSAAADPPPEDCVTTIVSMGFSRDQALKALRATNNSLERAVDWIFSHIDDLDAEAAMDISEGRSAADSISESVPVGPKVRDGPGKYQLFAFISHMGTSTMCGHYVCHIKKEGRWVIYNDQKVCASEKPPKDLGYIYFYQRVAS

According to PMC11737852 (2025):

Molecular target: Flag-IRF3 (UniProt Q14653)
Experiment: proximity ligation; Duolink in situ PLA in HEK293T co-transfected for 24 h with Myc-USP5 and Flag-IRF3 constructs, then SeV (0.1 MOI) for 6 h; mouse anti-Flag and rabbit anti-Myc

binding: binds
Substance: Myc-USP5-ΔUBA (from UniProt P45974) (enzyme)

These are yes or no findings as the source states them, for the method shown. Binding seen in cells or lysates may run through a third protein. Binding can be weak; no strength is given.
